Molecular target: T1, Aromatase (Homo sapiens, UniProt P11511)
T1 sequence (P11511 whole entry): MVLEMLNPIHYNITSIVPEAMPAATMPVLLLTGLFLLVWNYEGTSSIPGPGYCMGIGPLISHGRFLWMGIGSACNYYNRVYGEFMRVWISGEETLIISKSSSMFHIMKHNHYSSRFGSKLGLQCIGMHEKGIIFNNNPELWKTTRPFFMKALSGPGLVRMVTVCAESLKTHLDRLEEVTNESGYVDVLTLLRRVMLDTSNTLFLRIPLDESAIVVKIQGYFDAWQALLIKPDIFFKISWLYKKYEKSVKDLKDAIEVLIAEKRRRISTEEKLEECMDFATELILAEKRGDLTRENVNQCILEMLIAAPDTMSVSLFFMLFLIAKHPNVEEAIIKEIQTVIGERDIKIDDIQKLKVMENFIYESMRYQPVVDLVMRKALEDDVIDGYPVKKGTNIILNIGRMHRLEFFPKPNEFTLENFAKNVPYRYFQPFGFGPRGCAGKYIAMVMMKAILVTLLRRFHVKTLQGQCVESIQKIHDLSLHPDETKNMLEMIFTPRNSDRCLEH
Assay: Inhibition of aromatase

IC50 [nM]	SMILES
130	O=[N+]([O-])c1ccc(Cn2ccnc2)cc1
1200	N#Cc1ccc(Cn2ccnc2)cc1
